Laboratory results: PubChem BioAssay AID188 (DTP/NCI, 2004)
Values are animals surviving of animals treated; these mice carried no tumour. Counts of survivors are from the toxicity check (mostly the fifth day) where no day follows; animals may have died later. Schedule codes are those of the source, read here as Q, the interval in days (D) or hours (H), X, the number of doses.

System: CD2F1 mice, nontumored, toxicity/survival
Assay: NCI In Vivo Anticancer Drug Screen. Data for tumor model Nontumored Animals (Toxicity Test) in CD2F1 (CDF1) mice

Measured: survivor count

CN(Cc1ccccc1)/N=N/c1nc[nH]c1C(N)=O
8 of 8: dose: 8.0 mg/kg/injection, schedule: Q03HX016 (ip), vehicle: saline with Tween-80 | dose: 8.0 mg/kg/injection, schedule: Q03HX024 (ip), vehicle: saline with Tween-80 | dose: 16.0 mg/kg/injection, schedule: Q03HX016 (ip), vehicle: saline with Tween-80 | dose: 16.0 mg/kg/injection, schedule: Q03HX024 (ip), vehicle: saline with Tween-80 | dose: 32.0 mg/kg/injection, schedule: Q03HX016 (ip), vehicle: saline with Tween-80 | dose: 32.0 mg/kg/injection, schedule: Q03HX024 (ip), vehicle: saline with Tween-80 | dose: 64.0 mg/kg/injection, schedule: Q01DX009 (ip), vehicle: saline with Tween-80 | dose: 64.0 mg/kg/injection, schedule: Q03HX016 (ip), vehicle: saline with Tween-80 | dose: 64.0 mg/kg/injection, schedule: Q03HX024 (ip), vehicle: saline with Tween-80 | dose: 64.0 mg/kg/injection, schedule: Q04DX003 (ip), vehicle: saline with Tween-80 | dose: 64.0 mg/kg/injection, schedule: Q08DX002 (ip), vehicle: saline with Tween-80 | dose: 128.0 mg/kg/injection, schedule: Q01DX009 (ip), vehicle: saline with Tween-80 | dose: 128.0 mg/kg/injection, schedule: Q04DX003 (ip), vehicle: saline with Tween-80 | dose: 128.0 mg/kg/injection, schedule: Q08DX002 (ip), vehicle: saline with Tween-80 | dose: 256.0 mg/kg/injection, schedule: Q01DX009 (ip), vehicle: saline with Tween-80 | dose: 256.0 mg/kg/injection, schedule: Q04DX003 (ip), vehicle: saline with Tween-80 | dose: 256.0 mg/kg/injection, schedule: Q08DX002 (ip), vehicle: saline with Tween-80 | dose: 512.0 mg/kg/injection, schedule: Q04DX003 (ip), vehicle: saline with Tween-80
7 of 8: dose: 512.0 mg/kg/injection, schedule: Q08DX002 (ip), vehicle: saline with Tween-80
6 of 8: dose: 512.0 mg/kg/injection, schedule: Q01DX009 (ip), vehicle: saline with Tween-80

Nc1nc(N)c2nc(-c3ccc(Cl)c(Cl)c3)c(N)nc2n1
2 of 2: dose: 1.0 mg/kg/injection, schedule: Q01DX001 (ip), vehicle: water | dose: 10.0 mg/kg/injection, schedule: Q01DX001 (ip), vehicle: water | dose: 100.0 mg/kg/injection, schedule: Q01DX001 (ip), vehicle: water

COC(OC(CO)C(O)S(=O)(=O)O)C(O)S(=O)(=O)O (stereo unspecified)
0 of 8: dose: 200.0 mg/kg/injection, schedule: Q03HX008 (ip), vehicle: saline | dose: 200.0 mg/kg/injection, schedule: Q03HX016 (ip), vehicle: saline | dose: 200.0 mg/kg/injection, schedule: Q03HX024 (ip), vehicle: saline | dose: 400.0 mg/kg/injection, schedule: Q03HX008 (ip), vehicle: saline | dose: 400.0 mg/kg/injection, schedule: Q03HX016 (ip), vehicle: saline | dose: 400.0 mg/kg/injection, schedule: Q03HX024 (ip), vehicle: saline
5 of 8: dose: 100.0 mg/kg/injection, schedule: Q03HX008 (ip), vehicle: saline
6 of 8: dose: 400.0 mg/kg/injection, schedule: Q01DX009 (sc), vehicle: saline
8 of 8: dose: 50.0 mg/kg/injection, schedule: Q01DX001 (ip), vehicle: saline | dose: 50.0 mg/kg/injection, schedule: Q01DX009 (ip), vehicle: saline | dose: 50.0 mg/kg/injection, schedule: Q01DX009 (sc), vehicle: saline | dose: 50.0 mg/kg/injection, schedule: Q03HX008 (ip), vehicle: saline | dose: 50.0 mg/kg/injection, schedule: Q03HX016 (ip), vehicle: saline | dose: 50.0 mg/kg/injection, schedule: Q03HX024 (ip), vehicle: saline | dose: 100.0 mg/kg/injection, schedule: Q01DX001 (ip), vehicle: saline | dose: 100.0 mg/kg/injection, schedule: Q01DX009 (oral), vehicle: saline | dose: 100.0 mg/kg/injection, schedule: Q01DX009 (sc), vehicle: saline | dose: 100.0 mg/kg/injection, schedule: Q03HX024 (ip), vehicle: saline | dose: 100.0 mg/kg/injection, schedule: Q04DX003 (ip), vehicle: saline | dose: 100.0 mg/kg/injection, schedule: Q08DX002 (ip), vehicle: saline | dose: 200.0 mg/kg/injection, schedule: Q01DX001 (ip), vehicle: saline | dose: 200.0 mg/kg/injection, schedule: Q01DX009 (ip), vehicle: saline | dose: 200.0 mg/kg/injection, schedule: Q01DX009 (oral), vehicle: saline | dose: 200.0 mg/kg/injection, schedule: Q01DX009 (sc), vehicle: saline | dose: 200.0 mg/kg/injection, schedule: Q04DX003 (ip), vehicle: saline | dose: 200.0 mg/kg/injection, schedule: Q08DX002 (ip), vehicle: saline | dose: 400.0 mg/kg/injection, schedule: Q01DX001 (ip), vehicle: saline | dose: 400.0 mg/kg/injection, schedule: Q01DX009 (oral), vehicle: saline | dose: 400.0 mg/kg/injection, schedule: Q04DX003 (ip), vehicle: saline | dose: 400.0 mg/kg/injection, schedule: Q08DX002 (ip), vehicle: saline | dose: 800.0 mg/kg/injection, schedule: Q01DX001 (ip), vehicle: saline | dose: 800.0 mg/kg/injection, schedule: Q01DX009 (oral), vehicle: saline | dose: 800.0 mg/kg/injection, schedule: Q04DX003 (ip), vehicle: saline | dose: 800.0 mg/kg/injection, schedule: Q08DX002 (ip), vehicle: saline
6 of 6: dose: 400.0 mg/kg/injection, schedule: Q01DX009 (ip), vehicle: saline
7 of 8: dose: 100.0 mg/kg/injection, schedule: Q01DX009 (ip), vehicle: saline | dose: 100.0 mg/kg/injection, schedule: Q03HX016 (ip), vehicle: saline

CC(=O)Nc1ccc(-c2c(NCCO)ncc3ccccc23)cc1
2 of 2: dose: 1.0 mg/kg/injection, schedule: Q01DX001 (ip), vehicle: DMSO | dose: 10.0 mg/kg/injection, schedule: Q01DX001 (ip), vehicle: DMSO | dose: 100.0 mg/kg/injection, schedule: Q01DX001 (ip), vehicle: DMSO

OCN(CO)c1nc(CCC(Br)(Br)Br)nc(N(CO)CO)n1
2 of 2: dose: 1.0 mg/kg/injection, schedule: Q01DX001 (ip), vehicle: distilled water + Tween-80 | dose: 10.0 mg/kg/injection, schedule: Q01DX001 (ip), vehicle: distilled water + Tween-80 | dose: 100.0 mg/kg/injection, schedule: Q01DX001 (ip), vehicle: distilled water + Tween-80
